Reference: PubChem BioAssay AID485314 (National Center for Advancing Translational Sciences (NCATS), 2010)
Hit rate of the full screen: of about 340,000 compounds, about 4,500 (1.3%) were called active. This list was built around the results that the source calls inconclusive (neither active nor inactive); the mix of calls is not that of the screen. Calls come from the whole dose curve; as a rule, active = well fitted inhibition curve with a large enough effect; inconclusive = small, poorly fitted or top-dose-only effect, or another doubt; inactive = no such curve, though single readings can be large or run the other way. Potencies of inconclusive entries are doubtful fits and often do not repeat.

biological target: DNA polymerase beta (Homo sapiens) (UniProt P06746); assay: qHTS Assay for Inhibitors of DNA Polymerase Beta; details: Pol beta primer extension/strand displacement, fluorescence kinetic; activity change, negative = inhibition: at 114 µM (top of the series)
Method in brief: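 Homogeneous kinetic assay of primer extension and strand displacement by 10 nM Pol beta, preincubated 15 min at room temperature with compound before 50 nM substrate (final) was added. Read at 0 and 10 min; four-parameter Hill fit.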
% is set by controls: 0 for no effect and ±100 for the full control effect; potency is the fitted concentration of half-maximal effect.

Activity change, negative = inhibition, inconclusive:
O=C(CN1C(=O)S/C(=C\c2ccc(-c3cc(C(=O)O)ccc3Cl)o2)C1=O)Nc1ccc2c(c1)OCO2 -110% [inhibitor]

Activity change, negative = inhibition, inactive:
Cc1ccc(C(=O)Nc2cc3cc(Cl)ccc3oc2=O)cc1 7.7%, Cc1ccccc1-c1nc(S(=O)(=O)c2ccc(Cl)cc2)c(NCCN2CCOCC2)o1 -17.5%, COc1ccccc1N1CCN(C(=O)c2cnn(C(C)(C)C)c2C2CCN(C(=O)OC(C)(C)C)CC2)CC1 0.849%, CCOc1ccc(N2CC(NC(=O)c3cc4ccccc4o3)CC2=O)cc1 (stereo not given) 3.26%, Cc1ccc(C(=O)NCCSc2c[nH]c3ccccc23)cc1C -9.7%, Cc1cccn2c(=O)c3cc(C(=O)NC(C)(C)C)n(C)c3nc12 -13.4%

Potency, active:
CCCOc1ccc(/C(O)=C2/C(=O)C(=O)N(CCCN3CCOCC3)C2c2ccncc2)cc1 (stereo not given) 12.6 µM, Cc1ccc(-c2cc(C(=O)O)c3cc(Br)ccc3n2)o1 22.4 µM

Potency, inconclusive:
Cc1nnc(SCC2=C(C(=O)O)N3C(=O)C(NC(=O)c4cc(F)c(F)cc4Cl)C3SC2)s1 (stereo not given) 14.1 µM [inhibitor, partial curve], COc1ccccc1NC(=O)c1cc([N+](=O)[O-])ccc1NCCN1C(=O)CCC1=O 10 µM [inhibitor, full curve], CSc1ccccc1NC(=O)CN(c1ccccc1)S(=O)(=O)N(C)C 31.6 µM [inhibitor, partial curve], O=C(NCc1cccs1)c1cc2c(s1)CCCC2 89.1 µM [inhibitor, single point], O=Cc1c(N2CCN(c3cccc(Cl)c3)CC2)nc2ccccn2c1=O 89.1 µM [inhibitor, single point], COc1cccc(C(=O)Nc2ccc3[nH]ncc3c2)c1OC 0.708 µM [inhibitor, full curve, poor fit], Cc1ccc(CN2CCN(Cc3ccccc3-c3ccco3)CC2CCO)o1 (stereo not given) 35.5 µM [inhibitor, single point], O=C(c1ccc(F)cc1)c1ccc(CN2C(=O)c3ccccc3C2=O)o1 89.1 µM [inhibitor, single point], COC(=O)c1ccc(NC(=O)CN(Cc2ccc(Cl)cc2)S(C)(=O)=O)cc1 89.1 µM [inhibitor, single point], COc1cccc(S(=O)(=O)NCC(=O)Nc2ccc(C(C)(C)C)cc2)c1 2.82 µM [inhibitor, single point], COc1cc(O)ccc1-c1nc2ccc(Br)cn2c1Nc1ccccc1C 100 µM [inhibitor, single point]
